# Experimental data published in publication PMC5996148.
# Some of the results follow.
# What was measured:
# Experiment in all cases: protein microarray (ProtoArray v5.0), streptavidin-Alexa Fluor 647
# Settings in all cases: 3'-biotin; 20 mM Tris (pH 7.5), 5 mM MgCl2, 100 mM KCl, 0.1% Tween-20, A/T-rich and random oligonucleotide blockers; temperature not stated; high values mean tight binding
# MGC10997 (human) = system: MGC10997 (human)
# MGC13057 (human) = system: MGC13057 (human)
# MGC15705 (human) = system: MGC15705 (human)
# MGC21675 (human) = system: MGC21675 (human)
# MGC23270 (human) = system: MGC23270 (human)
# MGC23985 (human) = system: MGC23985 (human)
# MGC24103 (human) = system: MGC24103 (human)
# MGC24125 (human) = system: MGC24125 (human)
# MGC26733 (human) = system: MGC26733 (human)
# MGC29506 (human) = system: MGC29506 (human)
# MGC33407 (human) = system: MGC33407 (human)
# MGC35023 (human) = system: MGC35023 (human)
# MGC42105 (human) = system: MGC42105 (human)
# MGC50273 (human) = system: MGC50273 (human)
# MGC59937 (human) = system: MGC59937 (human)
# MGRN1 (human) = system: MGRN1 (human)
# MGST2 (human) = system: MGST2 (human)
# MIER1 (human) = system: MIER1 (human)
# MIF (human) = system: MIF (human)
# MIR16 (human) = system: MIR16 (human)
sequence,measurement,setting,value
GGGAGGCTGAGGCAGG [G4-1 biotinylated (PQS2)],binding signal,MGC10997 (human),-0.319 z-score
same,binding signal,MGC13057 (human),-0.346 z-score
same,binding signal,MGC15705 (human),-0.287 z-score
same,binding signal,MGC21675 (human),-0.275 z-score
same,binding signal,MGC23270 (human),-0.349 z-score
same,binding signal,MGC23985 (human),-0.347 z-score
same,binding signal,MGC24103 (human),-0.357 z-score
same,binding signal,MGC24125 (human),-0.338 z-score
same,binding signal,MGC26733 (human),-0.311 z-score
same,binding signal,MGC29506 (human),-0.341 z-score
same,binding signal,MGC33407 (human),-0.28 z-score
same,binding signal,MGC35023 (human),-0.308 z-score
same,binding signal,MGC42105 (human),-0.291 z-score
same,binding signal,MGC50273 (human),-0.289 z-score
same,binding signal,MGC59937 (human),-0.315 z-score
same,binding signal,MGRN1 (human),-0.351 z-score
same,binding signal,MGST2 (human),-0.335 z-score
same,binding signal,MIER1 (human),-0.339 z-score
same,binding signal,MIF (human),-0.321 z-score
same,binding signal,MIR16 (human),-0.343 z-score

# Nothing new here: an excerpt of the list.
sequence,measurement,setting,value
GGGAGGCTGAGGCAGG [G4-1 biotinylated (PQS2)],binding signal,MGC35023 (human),-0.308 z-score
same,binding signal,MGC42105 (human),-0.291 z-score
same,binding signal,MGC50273 (human),-0.289 z-score
